Results reported in patent publication US6541453B2 (Syngenta Limited, priority 1996, dated 2003).

Assay: general procedure: Fmoc solid-phase peptide synthesis; Fmoc Rink Amide MBHA; HBTU/HOBT/DIPEA (automated); diisopropylcarbodiimide/HOBT (manual)
Conditions: whole synthesis, scale 0.25 mmol

Question: Which results are given for “Phv-Ala-Ala-Ala-II-Val-Ala-Ala-Ala-Pip-NH2”?
Answer: final HPLC purity (RP-HPLC (Vydac C18 218TP54)): 94%; isolated mass: 83 mg
